Source: publication PMC11958688
These are yes or no findings as the source states them, for the method shown. Binding seen in cells or lysates may run through a third protein. Some results given as binding are weak or reduced against the parent protein; the word gives no strength.

By UniProt entry, the sequences of proteins in these tests, tags left out. Where a name states a change or a piece, a line headed by the entry shows the natural chain unless it says otherwise. Chains listed by the source or under a name are the forms on record and can include a tag or linker.
full-length human NTSR1 F286A, Flag at N-terminus and LgBiT at C-terminus (P30989, form named): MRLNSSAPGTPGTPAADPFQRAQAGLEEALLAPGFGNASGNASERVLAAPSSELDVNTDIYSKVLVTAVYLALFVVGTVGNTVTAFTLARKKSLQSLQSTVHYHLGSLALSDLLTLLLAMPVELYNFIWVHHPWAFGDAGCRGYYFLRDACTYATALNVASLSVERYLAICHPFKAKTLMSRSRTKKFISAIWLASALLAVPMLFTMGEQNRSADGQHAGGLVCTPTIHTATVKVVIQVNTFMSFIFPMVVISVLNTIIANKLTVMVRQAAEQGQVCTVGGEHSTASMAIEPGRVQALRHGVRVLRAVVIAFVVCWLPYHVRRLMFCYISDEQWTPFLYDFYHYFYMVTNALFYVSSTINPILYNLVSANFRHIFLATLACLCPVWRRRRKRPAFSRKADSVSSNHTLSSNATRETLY
full-length human NTSR1 L298A, Flag at N-terminus and LgBiT at C-terminus (P30989, form named): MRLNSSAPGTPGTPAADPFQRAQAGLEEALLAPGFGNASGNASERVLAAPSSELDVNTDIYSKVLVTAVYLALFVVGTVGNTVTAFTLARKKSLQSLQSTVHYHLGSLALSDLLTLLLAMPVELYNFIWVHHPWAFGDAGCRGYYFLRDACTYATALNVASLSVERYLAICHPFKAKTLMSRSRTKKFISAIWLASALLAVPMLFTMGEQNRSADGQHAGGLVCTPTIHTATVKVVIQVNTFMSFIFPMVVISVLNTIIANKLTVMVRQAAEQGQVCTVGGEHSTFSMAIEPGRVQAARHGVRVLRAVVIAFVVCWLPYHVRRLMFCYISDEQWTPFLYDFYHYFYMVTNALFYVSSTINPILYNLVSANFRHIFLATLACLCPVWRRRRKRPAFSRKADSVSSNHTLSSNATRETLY
full-length human NTSR1 M288A, Flag at N-terminus and LgBiT at C-terminus (P30989, form named): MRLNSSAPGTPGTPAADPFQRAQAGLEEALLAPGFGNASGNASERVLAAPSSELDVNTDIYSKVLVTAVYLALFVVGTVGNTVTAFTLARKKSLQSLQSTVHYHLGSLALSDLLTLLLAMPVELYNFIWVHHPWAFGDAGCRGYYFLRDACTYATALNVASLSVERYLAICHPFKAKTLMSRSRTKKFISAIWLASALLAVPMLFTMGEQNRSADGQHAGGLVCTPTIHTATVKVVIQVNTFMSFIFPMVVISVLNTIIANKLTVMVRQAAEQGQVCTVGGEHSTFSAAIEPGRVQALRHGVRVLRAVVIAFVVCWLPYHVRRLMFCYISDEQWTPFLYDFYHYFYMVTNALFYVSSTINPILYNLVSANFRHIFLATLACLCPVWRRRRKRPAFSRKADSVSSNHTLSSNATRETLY
UniProt P49407: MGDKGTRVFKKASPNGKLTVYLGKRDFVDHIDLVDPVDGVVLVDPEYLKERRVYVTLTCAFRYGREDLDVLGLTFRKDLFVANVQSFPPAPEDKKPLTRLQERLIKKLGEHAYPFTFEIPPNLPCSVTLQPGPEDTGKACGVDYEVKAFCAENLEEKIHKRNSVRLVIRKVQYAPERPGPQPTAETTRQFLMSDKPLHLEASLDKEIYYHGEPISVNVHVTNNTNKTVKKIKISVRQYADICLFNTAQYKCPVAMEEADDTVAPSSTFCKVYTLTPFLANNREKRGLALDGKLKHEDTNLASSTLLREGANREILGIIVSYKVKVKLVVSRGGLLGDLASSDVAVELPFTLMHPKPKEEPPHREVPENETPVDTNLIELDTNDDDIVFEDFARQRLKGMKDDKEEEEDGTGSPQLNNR

How the values were obtained:
Assay in all cases: split reporter; HEK293T cells transfected with NTSR1-LgBiT and SmBiT-βArr1 at 1:1; 10 μM furimazine; luminescence read for 20 min after addition of ligands (SBI-553); room temperature
[1] = biological target: full-length human NTSR1 F286A, Flag at N-terminus and LgBiT at C-terminus (human) (UniProt P30989)
[2] = biological target: full-length human NTSR1 L298A, Flag at N-terminus and LgBiT at C-terminus (human) (UniProt P30989)
[3] = biological target: full-length human NTSR1 M288A, Flag at N-terminus and LgBiT at C-terminus (human) (UniProt P30989)
[4] = biological target: full-length human NTSR1 wild type, Flag at N-terminus and LgBiT at C-terminus (human) (UniProt P30989)

Measured: binding

human βArr1 with SmBiT at its N-terminus (from UniProt P49407 1-418)
binds: all assays above
